Experiment [1] concerns the target SPRED2 (Sprouty-related EVH1 domain-containing protein 2) (human (endogenous in HCC1937 and MCF7)) (UniProt Q7Z698). The experiment is described as follows: co-IP; lysates (1 mg) of HCC1937 and MCF7 cells in Pierce IP lysis buffer, pre-cleared with Dynabeads protein G; anti-NF or anti-SPRED2 antibody 2 h at 4 °C, Dynabeads protein G overnight at 4 °C, four washes with lysis buffer; Western blot with anti-SPRED2 or anti-NF antibody.

The chains behind the UniProt entries cited, without tags or fusion partners.
UniProt Q7Z698: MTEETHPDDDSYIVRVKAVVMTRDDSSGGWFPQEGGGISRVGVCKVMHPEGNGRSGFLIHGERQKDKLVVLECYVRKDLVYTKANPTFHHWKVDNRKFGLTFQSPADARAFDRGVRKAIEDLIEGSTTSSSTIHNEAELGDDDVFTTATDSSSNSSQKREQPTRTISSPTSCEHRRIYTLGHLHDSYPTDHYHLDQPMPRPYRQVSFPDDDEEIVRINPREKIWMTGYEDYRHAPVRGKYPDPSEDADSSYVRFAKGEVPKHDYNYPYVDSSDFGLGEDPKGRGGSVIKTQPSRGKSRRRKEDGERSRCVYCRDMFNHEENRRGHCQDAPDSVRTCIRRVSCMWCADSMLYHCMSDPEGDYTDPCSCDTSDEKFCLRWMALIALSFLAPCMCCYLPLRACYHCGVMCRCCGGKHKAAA
UniProt P21359: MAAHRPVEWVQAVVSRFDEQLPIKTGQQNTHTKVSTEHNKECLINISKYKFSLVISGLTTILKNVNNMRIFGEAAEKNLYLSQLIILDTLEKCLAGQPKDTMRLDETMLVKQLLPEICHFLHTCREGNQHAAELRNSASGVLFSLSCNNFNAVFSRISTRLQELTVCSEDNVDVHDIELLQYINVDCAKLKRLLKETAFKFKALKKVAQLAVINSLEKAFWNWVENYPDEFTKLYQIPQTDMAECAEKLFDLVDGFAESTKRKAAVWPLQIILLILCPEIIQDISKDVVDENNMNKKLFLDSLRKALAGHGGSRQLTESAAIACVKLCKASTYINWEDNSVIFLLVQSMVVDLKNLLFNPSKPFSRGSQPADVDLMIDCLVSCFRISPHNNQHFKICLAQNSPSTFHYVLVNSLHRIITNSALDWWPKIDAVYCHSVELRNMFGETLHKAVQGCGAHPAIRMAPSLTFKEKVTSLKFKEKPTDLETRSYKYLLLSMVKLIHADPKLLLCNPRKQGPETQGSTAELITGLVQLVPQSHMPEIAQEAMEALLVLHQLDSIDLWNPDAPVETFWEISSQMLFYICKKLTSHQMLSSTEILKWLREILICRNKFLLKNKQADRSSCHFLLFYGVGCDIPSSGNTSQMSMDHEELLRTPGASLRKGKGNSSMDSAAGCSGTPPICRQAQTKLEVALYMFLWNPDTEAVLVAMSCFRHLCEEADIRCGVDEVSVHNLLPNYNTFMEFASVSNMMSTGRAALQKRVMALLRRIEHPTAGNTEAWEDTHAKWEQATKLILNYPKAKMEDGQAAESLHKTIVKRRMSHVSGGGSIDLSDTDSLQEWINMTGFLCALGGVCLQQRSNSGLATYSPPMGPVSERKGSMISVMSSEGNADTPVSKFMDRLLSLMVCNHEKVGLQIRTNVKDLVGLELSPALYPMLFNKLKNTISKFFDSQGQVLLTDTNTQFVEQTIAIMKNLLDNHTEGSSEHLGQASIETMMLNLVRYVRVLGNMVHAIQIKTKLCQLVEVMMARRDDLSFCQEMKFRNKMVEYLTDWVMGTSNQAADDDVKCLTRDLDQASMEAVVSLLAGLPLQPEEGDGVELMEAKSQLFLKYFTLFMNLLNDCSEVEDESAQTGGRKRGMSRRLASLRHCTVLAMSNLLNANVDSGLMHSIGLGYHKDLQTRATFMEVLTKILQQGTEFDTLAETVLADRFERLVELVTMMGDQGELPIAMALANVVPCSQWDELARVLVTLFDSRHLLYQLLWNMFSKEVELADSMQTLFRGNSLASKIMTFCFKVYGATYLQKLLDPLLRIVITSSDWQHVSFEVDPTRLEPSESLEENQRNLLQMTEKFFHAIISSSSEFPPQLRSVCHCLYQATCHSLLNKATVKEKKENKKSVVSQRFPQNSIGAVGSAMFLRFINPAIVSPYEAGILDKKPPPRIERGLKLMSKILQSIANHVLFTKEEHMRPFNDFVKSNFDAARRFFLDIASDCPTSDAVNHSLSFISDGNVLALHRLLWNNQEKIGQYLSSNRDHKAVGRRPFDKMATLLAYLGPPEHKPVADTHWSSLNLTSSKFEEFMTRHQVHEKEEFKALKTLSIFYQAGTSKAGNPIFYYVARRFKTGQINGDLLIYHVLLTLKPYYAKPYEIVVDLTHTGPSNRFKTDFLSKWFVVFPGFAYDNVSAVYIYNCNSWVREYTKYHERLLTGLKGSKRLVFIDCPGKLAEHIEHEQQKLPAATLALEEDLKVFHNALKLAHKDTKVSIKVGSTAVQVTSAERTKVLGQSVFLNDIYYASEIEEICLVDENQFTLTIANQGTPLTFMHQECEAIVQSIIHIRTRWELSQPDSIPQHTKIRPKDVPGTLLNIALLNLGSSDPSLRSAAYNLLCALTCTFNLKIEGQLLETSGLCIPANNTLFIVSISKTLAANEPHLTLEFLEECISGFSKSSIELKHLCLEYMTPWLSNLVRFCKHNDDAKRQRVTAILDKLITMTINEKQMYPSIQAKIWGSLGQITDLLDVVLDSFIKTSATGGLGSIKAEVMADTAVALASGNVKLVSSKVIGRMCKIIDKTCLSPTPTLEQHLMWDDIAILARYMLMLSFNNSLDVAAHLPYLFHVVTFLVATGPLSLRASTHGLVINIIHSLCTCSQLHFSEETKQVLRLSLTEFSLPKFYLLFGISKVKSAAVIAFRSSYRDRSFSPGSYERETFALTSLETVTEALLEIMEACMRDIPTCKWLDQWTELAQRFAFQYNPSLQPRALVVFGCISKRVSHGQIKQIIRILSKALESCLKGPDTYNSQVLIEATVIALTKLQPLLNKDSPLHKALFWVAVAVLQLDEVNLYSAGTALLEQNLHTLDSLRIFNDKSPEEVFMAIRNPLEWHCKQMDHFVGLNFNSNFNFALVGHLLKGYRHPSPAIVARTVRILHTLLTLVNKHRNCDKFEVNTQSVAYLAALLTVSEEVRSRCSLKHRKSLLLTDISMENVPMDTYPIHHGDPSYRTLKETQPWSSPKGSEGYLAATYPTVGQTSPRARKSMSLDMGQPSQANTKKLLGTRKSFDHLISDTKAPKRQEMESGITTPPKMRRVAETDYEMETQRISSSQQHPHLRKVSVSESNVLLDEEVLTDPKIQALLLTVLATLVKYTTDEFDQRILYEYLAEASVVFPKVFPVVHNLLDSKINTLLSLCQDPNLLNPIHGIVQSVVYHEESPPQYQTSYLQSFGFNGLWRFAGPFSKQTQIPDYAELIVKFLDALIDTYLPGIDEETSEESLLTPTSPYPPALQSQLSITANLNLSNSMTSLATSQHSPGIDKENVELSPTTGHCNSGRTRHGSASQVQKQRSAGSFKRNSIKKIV

Experiment [2] has as its target Neurofibromin (human (endogenous in HCC1937 and MCF7)) (UniProt P21359). The experiment is described as above.

These are yes or no findings as the source states them, for the method shown. In cells and extracts the contact can be indirect. Some entries that bind do so weakly or less than the wild type.

On to “Neurofibromin (from UniProt P21359 1-2839)”, for which the binding result in experiment [1] is “binds”.
“SPRED2 (Sprouty-related EVH1 domain-containing protein 2) (from UniProt Q7Z698 1-418)”: the binding result in experiment [2] is reported as “binds”.

Values taken from article PMC12563662.
